Paper PMC6795475
Like-named read-outs stand apart in the source and are kept apart here. Results are given in words; binding and its absence hold for the method and conditions named. In cells and extracts the contact can be indirect. Some results given as binding are weak or reduced against the parent protein; the word gives no strength. Sequences can lack the tags named with a protein.

T1: Pcf1-YFP (S. pombe) (UniProt Q1MTN9)
T1 sequence: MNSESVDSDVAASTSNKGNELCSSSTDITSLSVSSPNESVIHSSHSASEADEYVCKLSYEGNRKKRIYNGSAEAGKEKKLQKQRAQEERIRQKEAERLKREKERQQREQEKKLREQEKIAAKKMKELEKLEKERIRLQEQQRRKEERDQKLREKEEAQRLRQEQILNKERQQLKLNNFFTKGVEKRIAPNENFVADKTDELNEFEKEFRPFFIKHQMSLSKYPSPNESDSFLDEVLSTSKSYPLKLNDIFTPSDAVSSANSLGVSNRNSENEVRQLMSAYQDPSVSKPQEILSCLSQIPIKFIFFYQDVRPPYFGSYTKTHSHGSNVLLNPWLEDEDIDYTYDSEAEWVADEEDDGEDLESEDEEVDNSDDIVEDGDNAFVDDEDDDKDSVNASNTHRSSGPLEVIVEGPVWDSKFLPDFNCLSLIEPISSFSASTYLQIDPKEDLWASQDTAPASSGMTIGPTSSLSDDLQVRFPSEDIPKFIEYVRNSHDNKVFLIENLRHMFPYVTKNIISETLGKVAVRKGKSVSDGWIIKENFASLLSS

B1: Pcf2-MYC (protein, UniProt O13985 1-512)
chain: MRAEVLQIRWHYDANDDHTPIYSVDFQKNSLNKFATCGGDSKIRIWQLITSESSTKVEYLSTLSRHTQAVNVVRFNPEGNILATAGDEGTIMLWVPTNTPITTLADDAEELALAKEYWKVKIVCRSMGSEIYDLCWSVDSNFLIAGAMDNSLRLYDAHTGQLLTQKFDHSHYVQGVCWDPLNQYIVSESSDRSICLYEIQEEKKNPKKFQLVLKSRICRIEYNVTKFELISVTKPLNNDESSGISEPIETSNNNESPVSKHEALSSTANIVKDGSLERTEPPNSLNSKISYSLYCNETLVSFFRRPAFSPDGLLLVTPAGRLRPHGQPNFEVPYTAYIYTRGSITKQPVACLNGFKKPVIAVRFSPIHYELNSFSNFSFTSVSFNLPYRMVFAVACQDAVYIYDTQTCKPFYRAVNLHYSNLTDIAWNDDGNVLLMTSIDGFCSVITFEPGELGVKSQHKISLPEKRSASPSSIDDSQDNTAGGPATTTLIPRKVESSKVSKKRIAPTPVYP
B2: Rqh1-MYC (protein, UniProt Q09811 1-1328)
chain: MTVTKTNLNRHLDWFFRESPQKIENVTSPIKTLDFVKVKVSSSDIVVKDSIPHKSKNVFDDFDDGYAIDLTEEHQSSSLNNLKWKDVEGPNILKPIKKIAVPASESEEDFDDVDEEMLRAAEMEVFQSCQPLAVNTADTTVSHSTSSSNVPRSLNKIHDPSRFIKDNDVENRIHVSSASKVASISNTSKPNPIVSENPISATSVSIEIPIKPKELSNNLPFPRLNNNNTNNNNDNNAIEKRDSASPTPSSVSSQISIDFSTWPHQNLLQYLDILRDEKSEISDRIIEVMERYPFSSRFKEWIPKRDILSQKISSVLEVLSNNNNSNNNNGNNGTVPNAKTFFTPPSSITQQVPFPSTIIPESTVKENSTRPYVNSHLVANDKITATPFHSEAVVSPLQSNIRNSDIAEFDEFDIDDADFTFNTTDPINDESGASSDVVVIDDEEDDIENRPLNQALKASKAAVSNASLLQSSSLDRPLLGEMKDKNHKVLMPSLDDPMLSYPWSKEVLGCLKHKFHLKGFRKNQLEAINGTLSGKDVFILMPTGGGKSLCYQLPAVIEGGASRGVTLVISPLLSLMQDQLDHLRKLNIPSLPLSGEQPADERRQVISFLMAKNVLVKLLYVTPEGLASNGAITRVLKSLYERKLLARIVIDEAHCVSHWGHDFRPDYKQLGLLRDRYQGIPFMALTATANEIVKKDIINTLRMENCLELKSSFNRPNLFYEIKPKKDLYTELYRFISNGHLHESGIIYCLSRTSCEQVAAKLRNDYGLKAWHYHAGLEKVERQRIQNEWQSGSYKIIVATIAFGMGVDKGDVRFVIHHSFPKSLEGYYQETGRAGRDGKPAHCIMFYSYKDHVTFQKLIMSGDGDAETKERQRQMLRQVIQFCENKTDCRRKQVLAYFGENFDKVHCRKGCDICCEEATYIKQDMTEFSLQAIKLLKSISGKATLLQLMDIFRGSKSAKIVENGWDRLEGAGVGKLLNRGDSERLFHHLVSEGVFVEKVEANRRGFVSAYVVPGRQTIINSVLAGKRRIILDVKESSSKPDTSSRSLSRSKTLPALREYQLKSTTASVDCSIGTREVDEIYDSQMPPVKPSLIHSRNKIDLEELSGQKFMSEYEIDVMTRCLKDLKLLRSNLMAIDDSRVSSYFTDSVLLSMAKKLPRNVKELKEIHGVSNEKAVNLGPKFLQVIQKFIDEKEQNLEGTELDPSLQSLDTDYPIDTNALSLDHEQGFSDDSDSVYEPSSPIEEGDEEVDGQRKDILNFMNSQSLTQTGSVPKRKSTSYTRPSKSYRHKRGSTSYSRKRKYSTSQKDSRKTSKSANTSFIHPMVKQNYR

Key:
Pcf1-YFP (S. pombe) [1] = target: T1, Pcf1-YFP (S. pombe)
Pcf1-YFP (S. pombe) [2] = target: T1, Pcf1-YFP (S. pombe); remark: listed apart in the source

Binder | binding (Pcf1-YFP (S. pombe) [1]) | binding (Pcf1-YFP (S. pombe) [2])
B1 | binds | –
B2 | – | binds
